Results are given in words; binding and its absence hold for the method and conditions named. Some results given as binding are weak or reduced against the parent protein; the word gives no strength.
How the values were obtained:
[1] = target: natural SP-A in rat lung tissue (rat) (UniProt P08427); assay: immunohistochemistry with synthesized functional polypeptide
[2] = target: natural SP-A in rat lung tissue (rat) (UniProt P08427); assay: immunohistochemistry on rat lung tissue slices, HIS-IgG-HRP secondary

Row | binding [1] | binding [2] | Binder
1 | binds |  | synthesized functional polypeptide of Nb18 (without MQAQKAG at the N-end) (VHH) VHH: QLQLVESGGGLVQPGGSLMLSCVVSGVTISNYGMTWVRQAPGKGLEWISTIYSNGHTYYADSVKGRFTASRDNAKNTLYLQMNSLKPEDTAKYYCKLTGETHRGQGTQVTVSSEPKTPKPQGPRGLAAAGAPVPYPDPLEPRAA
2 |  | binds | Nb6 (VHH) VHH: LQAQLAGQLQLVESGGGLVQPGGSLRLSCVVSGVTISNYGMTWVRQAPGKGLEWISTVYSNGHTYYADSVKGRFTISRDNAKNTLYLQMNSLKPEDTAKYYCKLTGETHRGQGTQVTVSSEPKTPKPQGPRGLAAAGAPVPYPDPLEPRAA

— US20140314832A1
